89 compounds from PubChem BioAssay AID488835 (Broad Institute, 2010) can be followed below.

The chains behind the UniProt entries cited, without tags or fusion partners. Residues count along the entry.
UniProt Q9H3R0, 1-420 limits assumed: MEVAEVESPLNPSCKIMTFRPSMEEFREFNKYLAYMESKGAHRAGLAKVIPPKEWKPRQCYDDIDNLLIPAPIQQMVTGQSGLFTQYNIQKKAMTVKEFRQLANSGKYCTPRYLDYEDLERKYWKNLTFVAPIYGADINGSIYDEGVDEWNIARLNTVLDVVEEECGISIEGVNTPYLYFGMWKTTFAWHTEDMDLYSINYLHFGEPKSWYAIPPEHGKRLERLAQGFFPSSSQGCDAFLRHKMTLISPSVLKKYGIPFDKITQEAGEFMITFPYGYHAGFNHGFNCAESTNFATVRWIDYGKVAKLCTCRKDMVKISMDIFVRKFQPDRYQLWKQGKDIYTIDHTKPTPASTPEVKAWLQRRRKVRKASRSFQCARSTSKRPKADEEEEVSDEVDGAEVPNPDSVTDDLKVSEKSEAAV

The campaign covered roughly 1,400 compounds. About 140 (10%) were called active.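 Rule for the calls: active = Half-maximal inhibitory dose from the fit at or below ten times the top valid tested dose; inconclusive = Invalid fit, or flat curve showing 30 to 70% inhibition; inactive = the rest.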 The entries are a selection whose mix differs from that of the whole data set. Entries with a potency or affinity are not part of this list.

The assay addresses Lysine-specific demethylase 4C (Homo sapiens) (UniProt Q9H3R0). The assay is described as follows: inhibition of JMJD2C H3K9me3 demethylation – biochemical, DELFIA europium, cherry-picked samples, dose response (AID 488835).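 Note: signal is the H3K9me2 demethylation product detected by a dimethyl-specific antibody.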 To be noted: GST-JMJD2C(1-420); at 6 µM (top of the series) unless noted.
For the compound `O=c1nc(SCc2cccc(C(F)(F)F)c2)nc2ccccn12`, the activity change, negative = inhibition is inactive: -5.39%.

As to `Cc1nnc(SCc2nc3ccccc3[nH]2)s1`, the activity change, negative = inhibition is inactive: 8.43%.

With `CC1Oc2ccccc2N(Cc2ccccc2Cl)C1=O` (centres undefined), the activity change, negative = inhibition was inactive: -6.49%. The result for `CC1C(=O)N(Cc2ccc([N+](=O)[O-])cc2)c2ccccc2N1C(=O)C1CC1` (centres undefined) reads inactive: 2.71%. Under `COC(=O)C(Cc1ccccc1)NC(=O)COc1ccc(C(C)(C)C)cc1` (centres undefined) stands inactive: -0.353%. Under `Cc1ccc(NC(=O)COC(=O)CCc2c[nH]c(=O)[nH]2)cc1` stands inactive: 9.31%; under `O=c1c2ccccc2nc2c3ccccc3c(NCc3ccco3)nn12`, inactive: 3.15% [at 1.6 µM]. Take `CN(c1ccc(OCC(=O)N2CCCCC2)cc1)S(=O)(=O)c1cccs1`: the activity change, negative = inhibition was inactive: 0.477%. The result for `C[C@@]12C(=O)Nc3ccc(Cl)cc3C(=O)N1[C@H]1c3cc(Br)ccc3OC[C@@H]1[C@@H]2c1ccccc1` reads inactive: 7.95%; that for `O=C(C/C=N/OCc1ccc(Cl)cc1Cl)c1ccccc1`, inactive: 3.68%.

Take `COc1ccc(OC)c(Nc2nnc(C)c(=O)[nH]2)c1`: the activity change, negative = inhibition was inactive: 2.25%. The result for `CN(C(=O)c1ccc(Cl)c([N+](=O)[O-])c1)C1(C)CCS(=O)(=O)C1` (centres undefined) reads inactive: -4.39%. `Cc1cc(N2CCN(c3ccccc3)CC2)nc(-c2ccccc2)n1`: the activity change, negative = inhibition was inactive: -3.92%. The result for `NC(=S)Nc1ccc(Cl)cc1Cl` reads inactive: -0.693%; that for `Cn1nnc(NC(=O)CSc2ccc(Cl)cc2)n1`, inactive: -1.87%.

For the compound `Cc1ccc(NC(=O)C2C3CCCC2C3c2ccccc2)cc1C` (centres undefined), the activity change, negative = inhibition is inactive: -2.47%. Regarding `CCCc1cc(=O)[nH]c(SCC(=O)Nc2cc(S(=O)(=O)N(CC)c3ccccc3)ccc2Cl)n1`, the activity change, negative = inhibition was inactive: 1.6%. Under `COc1ccc(-c2ccc3oc(-c4ccsc4)cc(=O)c3c2)cn1` stands inactive: 0.942%.

For the compound `Oc1ccc(C2Nc3cccc4cccc(c34)N2)cc1`, the activity change, negative = inhibition was inactive: -4.18%. Take `COc1ccc(-n2cc(C(=O)O)c3ccccc3c2=O)cc1`: the activity change, negative = inhibition was inactive: 11.8%. Under `COc1cccc2c1nc(C)c1cc(C)oc12` stands inactive: -1.78%; under `Cc1occc1-c1nnc(SCC(=O)c2c[nH]c3ccccc23)n1C`, inactive: -1.09%.

`CCCN(CCC)CCNC(=O)CS(=O)Cc1nc(-c2ccc(C)cc2)oc1C` (centres undefined): the activity change, negative = inhibition is inactive: -1.44%. Turning to `CCN(C[C@H]1N[C@@](Cc2ccccc2)(C(=O)OC)[C@H]2C(=O)N(Cc3ccccc3)C(=O)[C@@H]12)S(=O)(=O)c1ccccc1`, the activity change, negative = inhibition is inactive: 1.11%. The result for `COc1ccc(NC(=O)N(C)C[C@H]2Oc3c(NS(=O)(=O)c4cccs4)cccc3C(=O)N([C@@H](C)CO)C[C@@H]2C)cc1` reads inactive: 6.59%. Under `COC(C(=O)Nc1ccc(NC(=O)C(OC)c2ccccc2)cc1)c1ccccc1` (centres undefined) stands inactive: -6.79%; under `Cc1cc(NC(=O)CCC(=O)N(c2ccccc2)C2(C(=O)NC3CCCCC3)CCCC2)no1`, inactive: -1.18%. Under `CC(=O)c1c(C)[nH]c(C(=O)NCCC2=CCCCC2)c1C` stands inactive: 5.97%; under `O=C(NCc1cccs1)c1cccnc1C(=O)O`, inactive: -1.61%; under `Cc1noc(C)c1CCC(=O)N1CCCC(CCC(=O)NCc2ccccc2F)C1` (centres undefined), inactive: -3.85%. As to `Cc1onc(-c2c(F)cccc2Cl)c1C(=O)N1CCN(S(C)(=O)=O)CC1`, the activity change, negative = inhibition was inactive: 12.7%. For `CC(C)(C)OC(=O)C[C@@H]1C/C=C\C[C@H](CC(=O)N[C@H](CO)Cc2ccccc2)C(=O)N[C@@H](Cc2ccccc2)COC1=O`, the activity change, negative = inhibition is inactive: 5.54%. For the compound `CC1=NN(C(=O)Cc2ccccc2)C(O)(c2cccnc2)C1` (centres undefined), the activity change, negative = inhibition is inactive: 1.24%.

Regarding `O=C(/C=C\Nc1ccc(Cl)cn1)c1ccc(Br)cc1`, the activity change, negative = inhibition is inactive: -7.96%.

As for `CCOC(=O)Cn1nc(C)c2c1CCCC2=O`, the activity change, negative = inhibition was inactive: 1.44%. Consider `O=C(COc1ccc(Cl)cc1)NCCCn1ccnc1`, for which the activity change, negative = inhibition is inactive: 3.44%. The result for `COc1c(Cl)cc(Cl)cc1/C=C/C(=O)c1ccc(NC(=O)c2cccs2)cc1` reads inactive: 4.13%; that for `O=C(COC(=O)c1ccco1)NNC(=O)c1ccc(Cl)cc1`, inactive: 1.1%.

For the compound `Fc1cccc(/C=N/Nc2nc3ccccc3[nH]2)c1`, the activity change, negative = inhibition was inactive: 2.18%. The result for `Cc1cccc(C)c1N1C(=O)c2cccc([N+](=O)[O-])c2C1=O` reads inactive: 1.27%; that for `CCC(NS(=O)(=O)c1cccs1)c1ccc(C)cc1` (centres undefined), inactive: 3.29%. Take `c1coc(CSCc2cn3cccnc3n2)c1`: the activity change, negative = inhibition is inactive: 7.04%. Take `CCCNC1=C(N(C(C)=O)c2cccc(F)c2)C(=O)c2ccccc2C1=O`: the activity change, negative = inhibition is inactive: 3.34%. Under `C=C(C)COc1ccc(-c2n[nH]c(C)c2-c2ccccc2)c(O)c1` stands inactive: 21.4%. The result for `Cc1cccc(CN2CCC(Oc3ccc(C(=O)N4CCCC4)cc3)CC2)n1` reads inactive: 0.665%. The result for `Cc1ccc(CCNC(=O)C23C[C@H]4C[C@@H](C2)CC(n2nnc(C)n2)(C4)C3)cc1` reads inactive: 5.08%; that for `C#CCOCCOCCOCCNc1nc(N2CCN(C(=O)[C@H](CCC(=O)O)n3cc(CN)nn3)CC2)nc(N2CCN(C(=O)[C@H](CCCN=C(N)N)n3cc(C(N)[C@@H](C)CC)nn3)CC2)n1` (some centres undefined), inactive: 76.7%. Take `CN(C(=O)c1ccc(NC(=O)Cc2ccc(NC(=O)C3CCN(C(=O)C4CC4)CC3)cc2)cc1)C1CC1`: the activity change, negative = inhibition is inactive: -1.05%.

For the compound `O=C1CC2(CCN(C(=O)c3ccccc3Cl)CC2)Oc2ccccc21`, the activity change, negative = inhibition was inactive: 4.1%. Under `CC(C)(C)OC(=O)NNC(=O)Nc1ccccc1C(F)(F)F` stands inactive: -1.55%; under `COc1cccc(C2c3[nH]c4ccccc4c3CCN2CCCn2cccn2)c1` (centres undefined), inactive: -2.21%; under `Cc1ccc(-c2csc3nc(C)n(-n4c(C)ccc4C)c(=O)c23)o1`, inactive: -2.47%.

`O=C(Nc1cccnc1)c1ccc2c(c1)C(=O)N(Cc1cccnc1)C2=O`: the activity change, negative = inhibition was inactive: -5.85%.

Regarding `CSc1nc(N)nc2c1ncn2CC(=O)N[C@H](CO)Cc1c[nH]c2ccccc12`, the activity change, negative = inhibition was inactive: -0.209%. Take `O=C1[C@@H]2[C@H](C(=O)N1O)[C@H]1C=C[C@@H]2C1`: the activity change, negative = inhibition is inactive: -0.309%. For `CCOC(=O)CCC(=O)NCc1ccc2c(c1)cc(C)n2C`, the activity change, negative = inhibition is inactive: 7.23%. On to `O=C(COC(=O)c1cccs1)c1ccccc1`, for which the activity change, negative = inhibition was inactive: -4.18%. As for `Cc1nnc(N2C(=O)c3cccc4c([N+](=O)[O-])ccc(c34)C2=O)s1`, the activity change, negative = inhibition was inactive: 8.61%. For the compound `Cc1ccc(-n2nc3c(N4CCC(C(=O)N5CCCCCC5)CC4)nnc(C)c3c2C)cc1`, the activity change, negative = inhibition was inactive: 2.79%. Under `CN(C)CCCNC1=CC(=O)OC12CCCCC2` stands inactive: -0.414%. The result for `CCCSc1nc(-c2ccccc2)cc(C(F)(F)F)c1C#N` reads inactive: 2.52%; that for `Cc1ccc(C(Sc2ccccc2)C(Cn2cncn2)C(=O)c2ccccc2)cc1` (centres undefined), inactive: 3.43%. Under `Cn1cc(C(=O)N2CCCCC2)c(=O)c2cc(S(=O)(=O)N3CCCC3)ccc21` stands inactive: -4.37%.

For `CCOC(=O)[C@H]1[C@H]2COc3ccc(C)cc3[C@@H]2N2C(=O)c3ccc(Cl)cc3NC(=O)[C@@]12C`, the activity change, negative = inhibition was inactive: -0.644%. On to `N#CC1=C(N)N2C(=C(C#N)C13CCCCC3)SC1CCCCC12O` (centres undefined), for which the activity change, negative = inhibition is inactive: 1.47%. Under `N#Cc1ccc(CSc2ncnc3c2cnn3Cc2ccccc2)cc1` stands inactive: -6.51%; under `O=C(c1ccc2c(c1)OCO2)N1CCCN(C(=O)c2ccc3c(c2)OCO3)CC1`, inactive: -1.3%; under `COC(=O)C1=C(C)OC(N)=C(C#N)C1c1cc2cccc(C)c2nc1Cl` (centres undefined), inactive: 3.78%.

On to `CS(=O)(=O)c1ccccc1-c1nnc(NC(=O)c2ccc3ncsc3c2)o1`, for which the activity change, negative = inhibition is inactive: 6.94%. Under `COc1ccc(S(=O)(=O)N2CC(O)CC2C(=O)OCc2nc3sc(C)c(C)c3c(=O)[nH]2)cc1` (centres undefined) stands inactive: 1.48%; under `COc1ccccc1NC(=O)c1cccs1`, inactive: -1.1% [at 1.6 µM].

Turning to `COc1ccc(CNC(=O)C2(CC3CC(c4ccccc4)=NO3)CCNCC2)cc1` (centres undefined), the activity change, negative = inhibition is inactive: 4.29%.

Regarding `COc1ccc(NC(=O)CCCN(C)S(=O)(=O)c2ccc(C)cc2)cc1`, the activity change, negative = inhibition was inactive: -0.654%. Under `COc1cc(NC(=O)CSc2nnnn2Cc2ccc3c(c2)OCO3)cc(OC)c1` stands inactive: 2.73%. The result for `CCN(CC(=O)NCC1CCCO1)S(=O)(=O)c1ccc(Cl)cc1` (centres undefined) reads inactive: 4.07%; that for `Cc1ccc(NC(=O)C(=O)NCCN2CCN(C(=O)C(c3ccccc3)c3ccccc3)CC2)cc1`, inactive: 0.69%. The result for `Cc1ccc(O)c(C(=O)c2cc(C#N)c(=O)n(CC3CCCO3)c2)c1` (centres undefined) reads inactive: -1.42%. On to `Brc1ccc(-c2csc(N3CCc4ccccc4C3)n2)cc1`, for which the activity change, negative = inhibition is inactive: -8.29%. Under `Cc1ccc(C(=O)NCC(=O)OCC(=O)Nc2ccc(Cl)cc2C(F)(F)F)cc1C` stands inactive: 14.9%; under `CCOC(=O)c1c(S(=O)(=O)NCC(=O)Nc2cccc(C)c2C)c(C)n(C)c1C`, inactive: 0.0665%.

In the case of `COc1ccc(OC)c(C2=NOC(C(=O)NCCN3CCOCC3)C2)c1` (centres undefined), the activity change, negative = inhibition was inactive: 0.98%.

Turning to `CC1CC(NC(=O)N(C)C)N(C)C(=O)N1` (centres undefined), the activity change, negative = inhibition was inactive: 8.29%.

Take `CCN(c1ccc(NC(=O)CCNC(=O)c2ccco2)cc1)C(C)C`: the activity change, negative = inhibition is inactive: 7.29%. The result for `CC(=O)Nc1ccc(NC(=O)CSc2ncnn2-c2ccccc2)cc1` reads inactive: -0.718%; that for `COc1ccc(OC)c(/C=N/NC(=O)CNC(=O)c2ccc(S(=O)(=O)N3CCOCC3)cc2)c1`, inactive: -0.0536%; that for `CCC(=O)N1CCc2cc(Br)cc(S(=O)(=O)CC(=O)OC)c21`, inactive: 7.49%. The result for `OCc1ccc(-c2nn(Cc3ccccc3)c3ccccc23)o1` reads inactive: -0.0861%.

As for `COc1ccccc1C(=O)OCc1c(-c2ccccc2)ncc2ccccc12`, the activity change, negative = inhibition was inactive: 2.56%. The result for `COC(C/C=C\[C@H](O)[C@H](C)OCc1ccccc1)OC` reads inactive: -5.17%.
